The values below come from paper PMC10114425.

Amino acid sequences for entries named in this document (tags omitted). A change or cut given only in a name is not applied to a line headed by its entry.
UniProt P84092: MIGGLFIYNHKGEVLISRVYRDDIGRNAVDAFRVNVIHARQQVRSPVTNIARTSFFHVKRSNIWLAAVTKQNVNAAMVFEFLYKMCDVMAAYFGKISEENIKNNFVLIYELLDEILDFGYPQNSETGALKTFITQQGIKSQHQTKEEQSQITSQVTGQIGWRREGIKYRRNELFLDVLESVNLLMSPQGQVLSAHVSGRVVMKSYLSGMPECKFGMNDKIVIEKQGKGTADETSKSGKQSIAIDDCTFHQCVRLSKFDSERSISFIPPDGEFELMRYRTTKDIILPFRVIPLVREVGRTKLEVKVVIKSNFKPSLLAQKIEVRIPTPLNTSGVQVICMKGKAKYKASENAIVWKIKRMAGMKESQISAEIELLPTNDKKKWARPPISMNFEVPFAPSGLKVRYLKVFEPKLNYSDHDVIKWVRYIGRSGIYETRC
UniProt A6NJI1: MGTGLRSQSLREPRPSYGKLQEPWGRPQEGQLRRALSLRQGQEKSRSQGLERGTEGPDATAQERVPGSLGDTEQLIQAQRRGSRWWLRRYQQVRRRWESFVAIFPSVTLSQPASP
UniProt Q96CW1: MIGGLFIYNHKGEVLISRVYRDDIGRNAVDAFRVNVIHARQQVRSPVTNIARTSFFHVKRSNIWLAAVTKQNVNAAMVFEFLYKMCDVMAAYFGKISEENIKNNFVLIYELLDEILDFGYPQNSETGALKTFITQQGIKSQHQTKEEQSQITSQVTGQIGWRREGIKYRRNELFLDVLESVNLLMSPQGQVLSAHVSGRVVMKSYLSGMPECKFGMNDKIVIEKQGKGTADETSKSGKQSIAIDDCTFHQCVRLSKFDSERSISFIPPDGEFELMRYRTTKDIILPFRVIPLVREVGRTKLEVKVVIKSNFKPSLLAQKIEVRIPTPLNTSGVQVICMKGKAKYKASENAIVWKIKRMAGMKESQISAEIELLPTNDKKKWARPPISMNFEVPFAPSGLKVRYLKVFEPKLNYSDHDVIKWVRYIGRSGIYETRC

No constants are given. Whether binding was seen depends on the method and setting. In cells and extracts the contact can be indirect.

The target in one assay is mCherry-AP2M1 (UniProt P84092). Nature of the assay: co-IP; AML12 cells expressing mCherry-AP2M1, transfected with mEmerald-FACI or mEmerald-FACI-ΔDxxxLI; precipitated with anti-mCherry, blotted with the indicated antibodies (Fig. S4).
A further assay has as its target mEmerald-FACI-ΔDxxxLI (UniProt A6NJI1). As to the kind of experiment: co-IP; HepG2 cells transfected with mEmerald-FACI or mEmerald-FACI-ΔDxxxLI; NP-40 lysis buffer; precipitated with anti-GFP, blotted with anti-GFP and anti-AP2M1.

Regarding “mEmerald-FACI-ΔDxxxLI (from UniProt A6NJI1)”, the binding entry in the assay with mCherry-AP2M1 is on record as “no binding”.

“endogenous AP2M1 (from UniProt Q96CW1 1-435)”: in the assay with mEmerald-FACI-ΔDxxxLI, the binding result is reported as “no binding”.
